Results reported in PMC10143440.
Where two headings read alike, the source gives them in different places. Results are given in words; binding and its absence hold for the method and conditions named. Some results given as binding are weak or reduced against the parent protein; the word gives no strength. Values belong to the molecule of their own block, whether it stands above or below them.

By UniProt entry, the sequences of proteins in these tests, tags left out. Residues count along the entry.
UniProt Q69ZK9, residues 15-836: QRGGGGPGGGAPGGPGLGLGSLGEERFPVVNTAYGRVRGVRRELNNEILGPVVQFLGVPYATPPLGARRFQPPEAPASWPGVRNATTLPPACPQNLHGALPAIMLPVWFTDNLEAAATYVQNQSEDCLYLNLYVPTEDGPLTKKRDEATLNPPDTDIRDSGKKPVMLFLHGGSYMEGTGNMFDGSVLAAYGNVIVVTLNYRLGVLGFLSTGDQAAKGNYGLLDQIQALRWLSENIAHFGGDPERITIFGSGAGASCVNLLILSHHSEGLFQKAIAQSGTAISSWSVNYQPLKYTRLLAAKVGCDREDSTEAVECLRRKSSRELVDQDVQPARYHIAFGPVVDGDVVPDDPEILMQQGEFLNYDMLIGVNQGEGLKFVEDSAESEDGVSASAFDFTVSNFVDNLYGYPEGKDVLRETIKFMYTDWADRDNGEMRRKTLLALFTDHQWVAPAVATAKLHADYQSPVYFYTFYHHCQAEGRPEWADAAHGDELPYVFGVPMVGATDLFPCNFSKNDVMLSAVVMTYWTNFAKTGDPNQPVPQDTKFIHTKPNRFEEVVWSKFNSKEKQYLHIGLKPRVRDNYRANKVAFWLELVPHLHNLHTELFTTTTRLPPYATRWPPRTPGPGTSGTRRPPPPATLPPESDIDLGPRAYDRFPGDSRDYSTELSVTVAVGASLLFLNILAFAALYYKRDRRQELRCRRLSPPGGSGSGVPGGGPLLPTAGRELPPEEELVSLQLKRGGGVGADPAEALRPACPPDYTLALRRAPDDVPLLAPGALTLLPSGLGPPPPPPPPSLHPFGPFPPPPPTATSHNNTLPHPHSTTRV

Experiments:
[1] = biological target: T1, GABAA receptor γ2 subunit (Gabrg2) (mouse (endogenous in cerebellum)) (UniProt P22723); assay: native gel or EMSA; antibody-shift BN-PAGE with mass spectrometry: 10 μg mouse cerebellum homogenate (1% MNG) incubated 1 h with or without 4 μg anti-γ2 antibody (N452/69), NativePAGE 4-16% Bis-Tris at 4 °C, gel slices analysed by diaPASEF LC-MS
T1 sequence: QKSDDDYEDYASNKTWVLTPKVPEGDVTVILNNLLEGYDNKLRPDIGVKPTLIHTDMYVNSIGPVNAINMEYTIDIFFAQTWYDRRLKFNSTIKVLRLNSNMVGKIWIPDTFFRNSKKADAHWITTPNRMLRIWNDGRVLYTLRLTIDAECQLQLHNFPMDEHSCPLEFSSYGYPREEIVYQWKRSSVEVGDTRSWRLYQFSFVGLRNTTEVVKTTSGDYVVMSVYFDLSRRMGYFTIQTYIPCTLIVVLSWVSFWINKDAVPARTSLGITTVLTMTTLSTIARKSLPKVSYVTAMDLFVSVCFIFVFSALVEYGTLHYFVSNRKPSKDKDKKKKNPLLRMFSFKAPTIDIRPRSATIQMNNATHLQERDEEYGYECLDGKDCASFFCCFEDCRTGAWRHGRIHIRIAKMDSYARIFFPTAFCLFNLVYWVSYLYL

[2] = biological target: GABAA receptor α6 subunit (Gabra6) (mouse (endogenous in cerebellum)) (UniProt P16305); assay: native gel or EMSA; antibody-shift BN-PAGE with mass spectrometry: 10 μg mouse cerebellum homogenate (1% MNG) incubated 1 h with or without 4 μg anti-α6 antibody (Gabra6-a), NativePAGE 4-16% Bis-Tris at 4 °C, gel slices analysed by LC-MS (DIA)
[3] = biological target: T2, GABAA receptor α6 subunit (Gabra6) (mouse (endogenous in cerebellum)), P16305; assay: native gel or EMSA; antibody-shift BN-PAGE with immunoblot: cerebellum lysate with or without anti-Gabra6 antibody, transferred to PVDF and immunostained for Gabra1; conditions: remark: other sources report otherwise
T2 chain: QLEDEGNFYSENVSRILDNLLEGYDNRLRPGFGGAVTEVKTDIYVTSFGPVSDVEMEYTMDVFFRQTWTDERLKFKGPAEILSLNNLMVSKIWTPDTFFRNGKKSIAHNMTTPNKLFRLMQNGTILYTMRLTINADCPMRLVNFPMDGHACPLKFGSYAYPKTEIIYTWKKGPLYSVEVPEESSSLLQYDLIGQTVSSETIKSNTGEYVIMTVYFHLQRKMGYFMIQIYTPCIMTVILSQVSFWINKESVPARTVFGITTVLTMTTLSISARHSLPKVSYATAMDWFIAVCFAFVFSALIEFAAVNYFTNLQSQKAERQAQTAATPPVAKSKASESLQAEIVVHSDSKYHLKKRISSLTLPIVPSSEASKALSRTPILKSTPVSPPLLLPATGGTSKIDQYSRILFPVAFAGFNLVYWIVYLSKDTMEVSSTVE

[4] = biological target: T2, GABAA receptor α6 subunit (Gabra6) …; assay: native gel or EMSA; antibody-shift BN-PAGE with mass spectrometry: 10 μg mouse cerebellum homogenate (1% MNG) incubated 1 h with or without 4 μg anti-α6 antibody (Gabra6-a), NativePAGE 4-16% Bis-Tris at 4 °C, gel slices analysed by LC-MS (DIA); conditions: remark: other sources report otherwise
[5] = biological target: GABAA receptor α6 subunit (Gabra6) (mouse (endogenous in cerebellum)) (UniProt P16305); assay: as above; remark: listed apart in the source

binding [1]: binds
binding [2]: binds
Molecule: Neuroligin-2 (Nlgn2) (from UniProt Q69ZK9 15-836)

binding [1]: binds
Molecule: GABAA receptor α6 subunit (Gabra6) (from UniProt P16305 20-453)

binding [3]: binds
binding [4]: binds
B1: GABAA receptor α1 subunit (Gabra1), P62812 28-455 (protein)
chain: QPSQDELKDNTTVFTRILDRLLDGYDNRLRPGLGERVTEVKTDIFVTSFGPVSDHDMEYTIDVFFRQSWKDERLKFKGPMTVLRLNNLMASKIWTPDTFFHNGKKSVAHNMTMPNKLLRITEDGTLLYTMRLTVRAECPMHLEDFPMDAHACPLKFGSYAYTRAEVVYEWTREPARSVVVAEDGSRLNQYDLLGQTVDSGIVQSSTGEYVVMTTHFHLKRKIGYFVIQTYLPCIMTVILSQVSFWLNRESVPARTVFGVTTVLTMTTLSISARNSLPKVAYATAMDWFIAVCYAFVFSALIEFATVNYFTKRGYAWDGKSVVPEKPKKVKDPLIKKNNTYAPTATSYTPNLARGDPGLATIAKSATIEPKEVKPETKPPEPKKTFNSVSKIDRLSRIAFPLLFGIFNLVYWATYLNREPQLKAPTPHQ

binding [5]: no binding
B2: Gephyrin (Gphn) (protein, UniProt Q8BUV3 1-769)
chain: MATEGMILTNHDHQIRVGVLTVSDSCFRNLAEDRSGINLKDLVQDPSLLGGTISAYKIVPDEIEEIKETLIDWCDEKELNLILTTGGTGFAPRDVTPEATKEVIEREAPGMALAMLMGSLNVTPLGMLSRPVCGIRGKTLIINLPGSKKGSQECFQFILPALPHAIDLLRDAIVKVKEVHDELEDLPSPPPPLSPPPTTSPHKQTEDKGVQCEEEEEEKKDSGVASTEDSSSSHITAAALAAKIPDSIISRGVQVLPRDTASLSTTPSESPRAQATSRLSTASCPTPKQIRRPDESKGVASRVGSLKARLPSCSSTYSVSEVQSRCSSKENILRASHSAVDITKVARRHRMSPFPLTSMDKAFITVLEMTPVLGTEIINYRDGMGRVLAQDVYAKDNLPPFPASVKDGYAVRAADGPGDRFIIGESQAGEQPTQTVMPGQVMRVTTGAPIPCGADAVVQVEDTELIRESDDGTEELEVRILVQARPGQDIRPIGHDIKRGECVLAKGTHMGPSEIGLLATVGVTEVEVNKFPVVAVMSTGNELLNPEDDLLPGKIRDSNRSTLLATIQEHGYPTINLGIVGDNPDDLLNALNEGISRADVIITSGGVSMGEKDYLKQVLDIDLHAQIHFGRVFMKPGLPTTFATLDIDGVRKIIFALPGNPVSAVVTCNLFVVPALRKMQGILDPRPTIIKARLSCDVKLDPRPEYHRCILTWHHQEPLPWAQSTGNQMSSRLMSMRSANGLLMLPPKTEQYVELHKGEVVDVMVIGRL
